Among the data in publication PMC4477661 are binding values, retold here.

The target in experiment [1] is T1, proliferating cell nuclear antigen (PCNA) of Leishmania donovani (Leishmania donovani (endogenous in Ld1S promastigotes)) (UniProt B5TV91).
T1 sequence: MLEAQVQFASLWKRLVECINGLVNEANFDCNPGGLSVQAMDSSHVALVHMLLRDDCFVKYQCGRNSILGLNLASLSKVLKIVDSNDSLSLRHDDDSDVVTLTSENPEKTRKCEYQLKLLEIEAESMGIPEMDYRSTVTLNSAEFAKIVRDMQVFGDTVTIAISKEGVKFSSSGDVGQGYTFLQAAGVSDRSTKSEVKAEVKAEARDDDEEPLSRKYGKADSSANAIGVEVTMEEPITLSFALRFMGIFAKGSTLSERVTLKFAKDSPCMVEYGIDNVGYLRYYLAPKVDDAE
In words: co-IP; anti-PCNA antibodies immobilised on Protein A sepharose/CL6B sepharose; whole cell lysates of promastigotes expressing HAT3-FLAG treated with DNase I, incubated overnight at 4°C; washed with 1x PBS-0.2% Triton X-100; western blot with anti-FLAG; logarithmically growing cells and cells synchronised with hydroxyurea (G1/S, S, G2/M).

Experiment [2] concerns the target Leishmania donovani histone acetyltransferase HAT3 with FLAG tag (HAT3-FLAG) (Leishmania donovani). In words: co-IP; HAT3-FLAG precipitated on FLAG-M2 agarose beads from whole cell lysates of promastigotes; western blot with anti-PCNA; logarithmically growing cells, also 8 h after UV exposure, with or without pre-incubation with 20 uM MG132. (In general: Immunoblotting shows a protein as a band on a membrane.)

Results are given in words; binding and its absence hold for the method and conditions named. Binding seen in cells or lysates may run through a third protein. A result given as binding can be weak or reduced; the word gives no strength.

With “Leishmania donovani histone acetyltransferase HAT3 with FLAG tag (HAT3-FLAG) (enzyme)”, the binding result in experiment [1] is reported as “binds”.

B1: proliferating cell nuclear antigen (PCNA) of Leishmania donovani (protein, UniProt B5TV91 1-292)
chain: T1 sequence
Regarding B1, the binding entry in experiment [2] is reported as “binds”.
